Results: the supplement of paper PMC10849652
Some of the results follow.

Amino acid sequences for entries named in this document (tags omitted). A change or cut given only in a name is not applied to a line headed by its entry.
UniProt Q9H2D1: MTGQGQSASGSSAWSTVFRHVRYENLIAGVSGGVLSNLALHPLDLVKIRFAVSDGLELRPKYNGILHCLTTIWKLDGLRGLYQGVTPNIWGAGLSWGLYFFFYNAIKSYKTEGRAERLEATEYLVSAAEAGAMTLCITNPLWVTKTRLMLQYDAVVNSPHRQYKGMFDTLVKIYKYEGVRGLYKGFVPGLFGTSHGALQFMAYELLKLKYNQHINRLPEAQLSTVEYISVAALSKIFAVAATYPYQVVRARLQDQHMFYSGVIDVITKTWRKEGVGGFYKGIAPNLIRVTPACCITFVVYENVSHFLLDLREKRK
UniProt Q8WU79: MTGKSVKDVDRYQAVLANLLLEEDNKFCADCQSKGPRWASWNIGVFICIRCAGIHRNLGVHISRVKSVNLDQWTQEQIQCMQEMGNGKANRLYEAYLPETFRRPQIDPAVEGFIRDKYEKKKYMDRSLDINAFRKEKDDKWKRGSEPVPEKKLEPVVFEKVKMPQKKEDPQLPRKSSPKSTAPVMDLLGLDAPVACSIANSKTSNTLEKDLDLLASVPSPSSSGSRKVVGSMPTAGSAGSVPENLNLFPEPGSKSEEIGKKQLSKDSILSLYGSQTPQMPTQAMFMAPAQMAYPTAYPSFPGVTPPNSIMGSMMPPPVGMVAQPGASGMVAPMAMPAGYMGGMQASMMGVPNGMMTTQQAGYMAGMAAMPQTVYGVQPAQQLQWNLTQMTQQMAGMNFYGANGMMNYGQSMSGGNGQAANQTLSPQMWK
UniProt P78381: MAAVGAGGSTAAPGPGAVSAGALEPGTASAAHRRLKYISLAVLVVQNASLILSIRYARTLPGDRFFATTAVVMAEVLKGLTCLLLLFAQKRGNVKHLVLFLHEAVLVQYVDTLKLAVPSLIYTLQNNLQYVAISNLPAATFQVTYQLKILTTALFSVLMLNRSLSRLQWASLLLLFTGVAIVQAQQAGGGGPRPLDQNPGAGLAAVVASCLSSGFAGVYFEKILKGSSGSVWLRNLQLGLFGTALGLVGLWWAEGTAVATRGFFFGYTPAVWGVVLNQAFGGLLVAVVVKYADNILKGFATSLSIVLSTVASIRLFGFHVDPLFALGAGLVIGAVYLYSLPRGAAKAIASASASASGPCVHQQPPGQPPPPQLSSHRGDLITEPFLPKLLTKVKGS
UniProt Q00325: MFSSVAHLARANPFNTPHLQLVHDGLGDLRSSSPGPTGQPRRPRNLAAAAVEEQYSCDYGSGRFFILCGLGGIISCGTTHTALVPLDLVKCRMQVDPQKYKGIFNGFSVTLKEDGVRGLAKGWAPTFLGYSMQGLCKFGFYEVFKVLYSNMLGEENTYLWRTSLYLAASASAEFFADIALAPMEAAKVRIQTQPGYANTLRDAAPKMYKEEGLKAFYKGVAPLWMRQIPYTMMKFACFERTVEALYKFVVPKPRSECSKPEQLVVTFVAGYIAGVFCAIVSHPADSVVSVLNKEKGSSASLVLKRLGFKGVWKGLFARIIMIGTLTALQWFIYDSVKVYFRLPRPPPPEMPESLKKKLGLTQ
UniProt Q9UBX3: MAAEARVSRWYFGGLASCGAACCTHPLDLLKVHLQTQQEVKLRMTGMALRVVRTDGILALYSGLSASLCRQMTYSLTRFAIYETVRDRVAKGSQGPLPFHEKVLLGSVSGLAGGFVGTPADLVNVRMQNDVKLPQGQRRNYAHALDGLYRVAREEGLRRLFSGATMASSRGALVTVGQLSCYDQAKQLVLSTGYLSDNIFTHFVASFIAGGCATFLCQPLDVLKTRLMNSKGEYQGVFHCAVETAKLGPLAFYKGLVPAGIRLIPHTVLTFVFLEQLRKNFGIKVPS
UniProt P31641: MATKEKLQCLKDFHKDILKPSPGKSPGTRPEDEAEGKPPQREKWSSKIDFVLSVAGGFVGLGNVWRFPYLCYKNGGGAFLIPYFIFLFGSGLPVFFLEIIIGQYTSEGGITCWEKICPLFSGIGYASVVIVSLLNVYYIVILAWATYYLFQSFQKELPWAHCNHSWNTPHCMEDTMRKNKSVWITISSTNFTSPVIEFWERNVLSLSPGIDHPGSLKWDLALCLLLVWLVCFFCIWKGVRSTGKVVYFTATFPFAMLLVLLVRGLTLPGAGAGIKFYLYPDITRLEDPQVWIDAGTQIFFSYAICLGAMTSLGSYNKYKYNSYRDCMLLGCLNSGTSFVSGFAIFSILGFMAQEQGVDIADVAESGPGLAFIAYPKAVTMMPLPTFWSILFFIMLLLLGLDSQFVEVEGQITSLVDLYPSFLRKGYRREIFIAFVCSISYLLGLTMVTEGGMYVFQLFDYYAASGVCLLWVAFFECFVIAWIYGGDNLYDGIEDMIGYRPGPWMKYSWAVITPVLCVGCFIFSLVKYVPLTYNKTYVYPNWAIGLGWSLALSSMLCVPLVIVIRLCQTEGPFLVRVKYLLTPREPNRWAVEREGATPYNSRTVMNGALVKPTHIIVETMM
UniProt Q6XR72: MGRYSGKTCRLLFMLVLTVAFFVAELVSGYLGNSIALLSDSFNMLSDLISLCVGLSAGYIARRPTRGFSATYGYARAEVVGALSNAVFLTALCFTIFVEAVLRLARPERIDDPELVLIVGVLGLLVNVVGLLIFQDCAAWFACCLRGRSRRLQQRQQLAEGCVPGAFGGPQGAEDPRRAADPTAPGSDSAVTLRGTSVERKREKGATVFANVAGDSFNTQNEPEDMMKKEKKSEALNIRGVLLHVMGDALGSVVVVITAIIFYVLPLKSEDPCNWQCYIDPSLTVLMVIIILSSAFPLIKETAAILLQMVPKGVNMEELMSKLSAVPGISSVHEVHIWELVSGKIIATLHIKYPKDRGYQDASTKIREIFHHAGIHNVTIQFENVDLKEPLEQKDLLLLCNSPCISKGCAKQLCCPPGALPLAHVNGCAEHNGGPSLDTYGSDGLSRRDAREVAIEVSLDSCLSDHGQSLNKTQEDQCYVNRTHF
UniProt P04920: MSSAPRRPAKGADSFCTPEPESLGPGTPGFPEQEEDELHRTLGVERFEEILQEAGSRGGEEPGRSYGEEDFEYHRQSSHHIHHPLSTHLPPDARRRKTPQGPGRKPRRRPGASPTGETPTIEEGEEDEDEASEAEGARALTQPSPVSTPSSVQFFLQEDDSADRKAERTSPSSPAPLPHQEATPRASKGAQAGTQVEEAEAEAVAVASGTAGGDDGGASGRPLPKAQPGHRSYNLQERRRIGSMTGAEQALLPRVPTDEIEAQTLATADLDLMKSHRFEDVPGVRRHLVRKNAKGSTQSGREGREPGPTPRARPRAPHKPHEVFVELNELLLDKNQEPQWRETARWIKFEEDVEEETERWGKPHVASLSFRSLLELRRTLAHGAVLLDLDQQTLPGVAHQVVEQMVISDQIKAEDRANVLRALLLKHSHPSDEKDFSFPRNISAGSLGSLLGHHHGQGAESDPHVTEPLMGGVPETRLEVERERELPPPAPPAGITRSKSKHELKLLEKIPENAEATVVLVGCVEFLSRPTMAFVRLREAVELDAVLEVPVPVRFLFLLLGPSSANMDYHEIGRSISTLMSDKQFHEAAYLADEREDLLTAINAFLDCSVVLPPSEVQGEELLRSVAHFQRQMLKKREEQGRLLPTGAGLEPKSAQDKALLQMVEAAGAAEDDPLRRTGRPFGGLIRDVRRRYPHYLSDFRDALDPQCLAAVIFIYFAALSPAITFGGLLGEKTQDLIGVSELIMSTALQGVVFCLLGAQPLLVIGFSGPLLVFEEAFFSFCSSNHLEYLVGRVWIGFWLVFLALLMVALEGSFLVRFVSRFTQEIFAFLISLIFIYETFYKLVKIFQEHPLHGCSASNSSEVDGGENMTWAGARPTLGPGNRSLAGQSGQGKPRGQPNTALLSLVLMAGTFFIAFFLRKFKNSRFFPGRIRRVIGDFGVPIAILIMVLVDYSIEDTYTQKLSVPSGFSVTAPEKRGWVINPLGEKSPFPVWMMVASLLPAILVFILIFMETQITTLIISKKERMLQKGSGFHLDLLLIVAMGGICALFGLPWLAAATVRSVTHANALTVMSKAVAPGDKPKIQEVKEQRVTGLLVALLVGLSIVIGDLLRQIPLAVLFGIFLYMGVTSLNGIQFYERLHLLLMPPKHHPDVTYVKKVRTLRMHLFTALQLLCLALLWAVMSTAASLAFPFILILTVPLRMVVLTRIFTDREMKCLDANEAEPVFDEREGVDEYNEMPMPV
UniProt Q9Y619: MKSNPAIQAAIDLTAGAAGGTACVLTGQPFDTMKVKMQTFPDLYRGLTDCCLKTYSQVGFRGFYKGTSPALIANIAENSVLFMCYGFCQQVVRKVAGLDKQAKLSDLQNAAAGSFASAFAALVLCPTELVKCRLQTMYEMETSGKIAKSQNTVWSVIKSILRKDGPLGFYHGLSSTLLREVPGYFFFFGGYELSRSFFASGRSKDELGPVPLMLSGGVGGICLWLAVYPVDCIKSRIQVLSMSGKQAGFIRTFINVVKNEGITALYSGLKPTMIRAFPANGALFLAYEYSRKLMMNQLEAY
UniProt Q9NYZ2: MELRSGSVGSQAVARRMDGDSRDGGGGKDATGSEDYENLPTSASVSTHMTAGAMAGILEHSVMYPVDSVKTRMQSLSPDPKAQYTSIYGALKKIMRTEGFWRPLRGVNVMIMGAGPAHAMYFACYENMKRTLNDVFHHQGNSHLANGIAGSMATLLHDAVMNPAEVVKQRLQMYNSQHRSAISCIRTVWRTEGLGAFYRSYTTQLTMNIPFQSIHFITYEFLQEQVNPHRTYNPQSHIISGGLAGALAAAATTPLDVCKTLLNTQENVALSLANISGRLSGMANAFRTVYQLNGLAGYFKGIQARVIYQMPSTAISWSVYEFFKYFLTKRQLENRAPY
UniProt Q9Y6M7: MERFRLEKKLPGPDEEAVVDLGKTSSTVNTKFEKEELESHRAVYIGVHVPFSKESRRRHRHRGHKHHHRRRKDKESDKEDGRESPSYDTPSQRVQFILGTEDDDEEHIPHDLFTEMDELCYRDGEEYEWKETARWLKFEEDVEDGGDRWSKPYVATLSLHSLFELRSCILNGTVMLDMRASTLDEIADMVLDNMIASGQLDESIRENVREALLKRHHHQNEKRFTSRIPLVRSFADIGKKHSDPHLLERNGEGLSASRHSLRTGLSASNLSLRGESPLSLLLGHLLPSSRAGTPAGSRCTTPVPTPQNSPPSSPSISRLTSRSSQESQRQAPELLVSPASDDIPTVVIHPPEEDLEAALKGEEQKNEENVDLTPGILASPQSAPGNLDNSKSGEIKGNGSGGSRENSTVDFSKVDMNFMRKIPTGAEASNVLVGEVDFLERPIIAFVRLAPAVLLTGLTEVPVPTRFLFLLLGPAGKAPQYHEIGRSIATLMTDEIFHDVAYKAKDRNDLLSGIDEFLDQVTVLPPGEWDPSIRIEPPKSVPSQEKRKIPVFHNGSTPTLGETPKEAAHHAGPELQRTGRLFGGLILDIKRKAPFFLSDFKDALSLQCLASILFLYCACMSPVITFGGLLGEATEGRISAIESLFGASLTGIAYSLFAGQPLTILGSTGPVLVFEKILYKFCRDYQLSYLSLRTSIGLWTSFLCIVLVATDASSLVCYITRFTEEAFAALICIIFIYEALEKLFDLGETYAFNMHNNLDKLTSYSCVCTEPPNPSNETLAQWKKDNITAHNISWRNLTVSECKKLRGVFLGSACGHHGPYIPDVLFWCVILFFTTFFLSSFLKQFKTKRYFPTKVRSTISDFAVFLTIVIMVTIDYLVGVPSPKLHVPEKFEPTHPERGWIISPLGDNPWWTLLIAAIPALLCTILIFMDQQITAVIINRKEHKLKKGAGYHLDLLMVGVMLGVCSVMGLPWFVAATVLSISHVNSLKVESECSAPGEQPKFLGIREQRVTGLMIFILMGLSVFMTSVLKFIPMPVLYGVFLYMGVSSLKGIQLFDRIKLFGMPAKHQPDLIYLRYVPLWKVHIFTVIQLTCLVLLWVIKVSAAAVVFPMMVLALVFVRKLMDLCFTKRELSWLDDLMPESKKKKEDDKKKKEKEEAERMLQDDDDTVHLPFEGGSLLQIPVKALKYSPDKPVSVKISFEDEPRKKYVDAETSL
UniProt Q96QD8: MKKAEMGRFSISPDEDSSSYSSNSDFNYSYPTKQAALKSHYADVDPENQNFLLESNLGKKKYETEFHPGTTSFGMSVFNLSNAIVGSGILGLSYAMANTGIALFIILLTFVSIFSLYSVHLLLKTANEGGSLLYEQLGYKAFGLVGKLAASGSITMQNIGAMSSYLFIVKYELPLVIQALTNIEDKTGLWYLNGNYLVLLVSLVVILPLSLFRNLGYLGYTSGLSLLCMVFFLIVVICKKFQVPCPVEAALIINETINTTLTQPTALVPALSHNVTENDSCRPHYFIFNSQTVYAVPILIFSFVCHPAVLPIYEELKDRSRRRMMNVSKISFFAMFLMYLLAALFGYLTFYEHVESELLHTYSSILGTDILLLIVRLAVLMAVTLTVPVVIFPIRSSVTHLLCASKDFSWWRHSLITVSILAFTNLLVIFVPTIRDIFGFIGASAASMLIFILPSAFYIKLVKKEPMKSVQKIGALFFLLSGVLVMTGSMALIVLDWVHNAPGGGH

What follows are targets tested with COC(=O)[C@H](CCSC)NC(=O)C1=C(C=C(C=C1)NC[C@H](CS)N)C2=CC=CC=C2 (assay: log2 fold change, soluble protein after heating vs DMSO (PISA); higher = thermal stabilisation; K562 lysate, 10 uM; active = over 0.2 and 3.5 SD of the protein, either way, in both replicates (recomputed)).
Method in brief: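 Dounce homogenisation of K562 pellets in PBS pH 7.4 with 1 mM MgCl2 produced a crude extract, used at 1 mg/mL protein. Exposure to 10 μM compound lasted 30 min, and aliquots were then heated for 3 min across 48°C-58°C, pooled and brought to 0.5% NP-40 at 4°C. The supernatant after 21,000xg for 90 min was quantified by TMTpro 16plex LC-MS/MS with channel sums equalised. Duplicate values are given as log-two fold change in thermal stability relative to solvent controls.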

log2 fold change, inactive:
SLC43A1 (UniProt O75387) -0.015, SMARCA2 (UniProt P51531) 0.046, SLC25A25 isoform 3 (UniProt Q6KCM7) 0.012, SLC2A1 (UniProt P11166) -0.008, SLC25A32 (UniProt Q9H2D1) 0.01, SMAP2 (UniProt Q8WU79) -0.037, SLC43A3 isoform 2 (UniProt Q8NBI5) -0.045, SLC25A42 (UniProt Q86VD7) 0, SLC35A2 isoform 4 (UniProt P78381) 0.002, SLC25A3 isoform 2 (UniProt Q00325) -0.012, SLC25A10 isoform 2 (UniProt Q9UBX3) 0.008, SLC39A10 (UniProt Q9ULF5) -0.037, SLC6A6 (UniProt P31641) -0.068, SLC30A10 (UniProt Q6XR72) -0.118, SLC4A2 (UniProt P04920) -0.154, SLC2A3 (UniProt P11169) -0.037, SLC7A5 (UniProt Q01650) -0.084, SLC25A15 (UniProt Q9Y619) 0.009, SLC25A37 (UniProt Q9NYZ2) 0.009, SLC4A7 isoform 7 (UniProt Q9Y6M7) -0.051, SLC38A2 (UniProt Q96QD8) -0.02
